Source: PubChem BioAssay AID1259425 (University of Nebraska Medical Center, 2018)
The whole screen tested about 14,000 reagents; below is a random part of them. Reagents against one gene are numbered here. Reagent sequences are not shown. Not given: the time to read-out.

- Purpose: 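Find knockdowns that reproduce the gene expression pattern seen when KSR1 is lost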 (primary screen)
- Cells: HCT116 human colon cancer cells
- Reagent: siRNA pool against human genes, 50 nM siRNA
- Measurement: 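mRNA of six signature genes measured together by branched-DNA assay after 50 nM siRNA pool, blank removed, divided by geometric mean of two housekeeping genes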
- Direction: BNIP3L mRNA: higher = more BNIP3L transcript after knockdown; NDRG1 mRNA: higher = more NDRG1 transcript after knockdown; BNIP3 mRNA: higher = more BNIP3 transcript after knockdown; ALDOC mRNA: higher = more ALDOC transcript after knockdown; ACSL5 mRNA: higher = more ACSL5 transcript after knockdown

no.	gene knocked down	pool no.	BNIP3L mRNA, set 1	NDRG1 mRNA, set 1	BNIP3 mRNA, set 1	ALDOC mRNA, set 1	ACSL5 mRNA, set 1
1	CDSN	1	0.128	0.204	0.306	0.0119	0.221
2	VIRMA	1	0.0718	0.085	0.274	0.0275	0.154
3	PGBD3	1	0.158	0.263	0.359	0.0519	0.23
4	MYO3A	1	0.0797	0.645	0.56	0.00544	0.36
5	PLSCR4	1	0.137	0.159	0.37	0.0903	0.2
6	NXF1	1	0.303	0.309	0.385	0.118	0.3
7	ITIH3	1	0.1	0.165	0.242	0.024	0.172
8	GMDS	1	0.0975	0.0842	0.236	0.0104	0.105
9	HS3ST1	1	0.131	0.0553	0.223	0.0355	0.0639
10	ZNF142	1	0.316	0.376	0.29	0.0325	0.187
11	TFIP11	1	0.0657	0.428	0.366	0.0184	0.207
12	LGALS12	1	0.0953	0.163	0.246	0.0117	0.215
13	TFPT	1	0.0729	0.268	0.266	0.0567	0.18
14	PRB3	1	0.0842	0.127	0.395	0.0117	0.102
15	GCNT1	1	0.105	0.434	0.4	0.121	0.308
16	SLC35B4	1	0.116	0.46	0.313	0.0294	0.235
17	MRPL18	1	0.0962	0.161	0.312	0.0215	0.0544
18	CASP14	1	0.0778	0.272	0.403	0.0355	0.246
19	PPP1R26	1	0.0118	0.208	0.254	0.0217	0.261
20	BTG2	1	0.0487	0.266	0.201	0.0117	0.134
21	CAPNS2	1	0.191	0.484	0.274	0.135	0.452
22	LCOR	1	0.132	0.751	0.528	0.0112	0.271
23	LCOR	2	0.0736	0.117	0.123	0.11	0.179
24	PPM1L	1	0.0552	0.124	0.268	0.0189	0.0934
25	POFUT1	1	0.0712	0.559	0.221	0.0507	0.11
26	FCGR3B	1	0.035	1.06	0.217	0.0106	0.239
27	CCDC14	1	0.13	0.39	0.324	0.038	0.206
28	TONSL	1	0.0941	0.0876	0.3	0.00717	0.15
29	TMEM147	1	0.102	0.594	0.256	0.094	0.324
30	OAS1	1	0.102	0.12	0.302	0.0501	0.144
31	SMYD2	1	0.0704	0.114	0.233	0.0202	0.091
32	SLAMF6	1	0.192	0.139	0.351	0.0295	0.267
33	HCN3	1	0.0791	0.105	0.387	0.0131	0.288
34	PRXL2A	1	0.114	0.0662	0.239	0.0771	0.221

3 entries from above, set out differently.
{"gene knocked down":"LGALS12","pool no.":1,"BNIP3L mRNA, set 1":0.0953,"NDRG1 mRNA, set 1":0.163,"BNIP3 mRNA, set 1":0.246,"ALDOC mRNA, set 1":0.0117,"ACSL5 mRNA, set 1":0.215}
{"gene knocked down":"TFPT","pool no.":1,"BNIP3L mRNA, set 1":0.0729,"NDRG1 mRNA, set 1":0.268,"BNIP3 mRNA, set 1":0.266,"ALDOC mRNA, set 1":0.0567,"ACSL5 mRNA, set 1":0.18}
{"gene knocked down":"PRB3","pool no.":1,"BNIP3L mRNA, set 1":0.0842,"NDRG1 mRNA, set 1":0.127,"BNIP3 mRNA, set 1":0.395,"ALDOC mRNA, set 1":0.0117,"ACSL5 mRNA, set 1":0.102}
